Laboratory results as given in US8277777B2, “Compound having affinity for amyloid” (Nihon Medi-Physics Co., Ltd., priority 2006, dated 2012).
Some entries share one result that the patent states for a list of compounds.

Protein sequences, listed by entry. Tags and fused reporters are not part of them. Residues count along the entry.
UniProt P05067, 672-711 limits assumed: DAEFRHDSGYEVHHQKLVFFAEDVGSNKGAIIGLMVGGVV

Target: T1, amyloid (aggregated Aβ1-40) (Homo sapiens, UniProt P05067)
T1 construct: purchased Peptide Institute, INC
Assay: in vitro amyloid binding test (inhibition of [125I]3′-I-BTA-0 binding)
Conditions: [125I]3′-I-BTA-0 400 pmol/L, amyloid 1 μmol/L, 0.1% BSA phosphate buffer pH 7.4, 22°C, 3 hours
Procedure: The resulting samples were placed in each well (about 0.3 mL in volume) of a 96-well microplate.
The measured radioactivity level was defined as the background radioactivity level, and used in the calculation of the inhibition ratio (hereinafter referred to as BG).
(9) Using the radioactivity levels measured above in (7) and (8), the inhibition ratio was determined by the following formula (1).
A graph in which values converted by probit transformation from the obtained inhibition ratios were plotted relative to logarithms of concentrations of compounds for evaluation was prepared to obtain an approximate straight line by the least square method. Using the line, the concentration of each compound for evaluation was determined, at which the radioactivity level is half of the level of the sample free from each compound for evaluation, and was defined as a 50% inhibition concentration of each compound (hereinafter referred to as IC50% value).

Row | SMILES | IC50
1 | FCCCOc1ccc(-c2cn3ccccc3n2)cc1 [Compound 3, 2-[4′-(3″-fluoropropoxy)phenyl]imidazo[1,2-a]pyridine] | < 100 nM
2 | Oc1ccc2nc(-c3ccc(OCCCF)cc3)cn2c1 [Compound 2, 2-[4′-(3″-fluoropropoxy)phenyl]-6-hydroxyimidazo[1,2-a]pyridine] | < 100 nM
3 | COc1ccc2nc(-c3ccc(OCCCF)cc3)cn2c1 [Compound 1, 2-[4′-(3″-fluoropropoxy)phenyl]-6-methoxyimidazo[1,2-a]pyridine] | < 100 nM
